Experimental data as given in patent US20240092930A1.
No constants are given. Whether binding was seen depends on the method and setting. Some binding calls cover weakened binding; strength is not graded here.

By UniProt entry, the sequences of proteins in these tests, tags left out. Where a name states a change or a piece, a line headed by the entry shows the natural chain unless it says otherwise. Residues count along the entry.
UniProt P09758: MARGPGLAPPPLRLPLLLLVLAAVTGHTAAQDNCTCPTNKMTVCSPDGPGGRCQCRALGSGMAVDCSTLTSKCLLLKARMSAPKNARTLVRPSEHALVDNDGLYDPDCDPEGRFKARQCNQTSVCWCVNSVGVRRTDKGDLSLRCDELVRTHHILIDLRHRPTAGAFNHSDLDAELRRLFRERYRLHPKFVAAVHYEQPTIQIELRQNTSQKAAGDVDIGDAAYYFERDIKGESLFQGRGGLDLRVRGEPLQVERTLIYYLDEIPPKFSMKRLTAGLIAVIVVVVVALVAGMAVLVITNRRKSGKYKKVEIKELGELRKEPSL
human Trop-2 on the surface of cells (CHO/Trop-2 cells; BxPC-3 cells; NCI-N87 cells): residues 27-323 of P09758

How the values were obtained:
[1] = biological target: recombinant human Trop-2-his protein (ACCESSION NO.: NP_002344.2, AA 1-274) (human) (UniProt P09758); assay: ELISA, coated human Trop-2-his, purified murine antibody 1 µg/ml
[2] = biological target: recombinant human Trop-2-his protein (ACCESSION NO.: NP_002344.2, AA 1-274) (human) (UniProt P09758); assay: ELISA, hybridoma supernatant on coated Trop-2-his
[3] = biological target: human Trop-2 on the surface of cells (CHO/Trop-2 cells; BxPC-3 cells; NCI-N87 cells) (human) (UniProt P09758); assay: FACS, CHO/Trop-2 cells, purified murine antibody at 13 nM and 0.66 nM
[4] = biological target: human Trop-2 on the surface of cells (CHO/Trop-2 cells; BxPC-3 cells; NCI-N87 cells) (human) (UniProt P09758); assay: FACS (MFI) on CHO/Trop-2 cells, hybridoma supernatant diluted 100-fold, goat anti-mouse IgG-FITC
[5] = biological target: human Trop-2 on the surface of cells (CHO/Trop-2 cells; BxPC-3 cells; NCI-N87 cells) (human) (UniProt P09758); assay: FACS, CHO/Trop-2 cells
[6] = biological target: recombinant human Trop-2-his protein (ACCESSION NO.: NP_002344.2, AA 1-274) (human) (UniProt P09758); assay: ELISA, coated Trop-2-his 0.2 µg/ml

Row | binding [1] | binding [2] | binding [3] | binding [4] | binding [5] | binding [6] | Binder
1 | binds | binds | binds | binds | – | – | m11-4 (antibody, mouse IgG1, V domains shown) VH: QVQLQQPGAELVRPGASVNLSCKASGYTFTSYWINWVKQRPGQGLEWIGNIYPSNSYTNYNQKFKDTATLTVDKSSSTAYMQLSSPTSEDSAVYFCSSYRSDGFAYWGQGTLVTVSA VL: DILLTQSPAILSVSPGEKVSFSCRASQNIGTSIHWYQQRTNGSPRLLIEFASESISGIPSRFSGSGSGTDFTLTINSVESEDIADYYCQQSNSWPFTFGGGTKLEIK
2 | – | – | – | – | binds | binds | chimeric antibody ch11-4 (antibody, human IgG1, V domains shown) VH: QVQLQQPGAELVRPGASVNLSCKASGYTFTSYWINWVKQRPGQGLEWIGNIYPSNSYTNYNQKFKDTATLTVDKSSSTAYMQLSSPTSEDSAVYFCSSYRSDGFAYWGQGTLVTVSA VL: DILLTQSPAILSVSPGEKVSFSCRASQNIGTSIHWYQQRTNGSPRLLIEFASESISGIPSRFSGSGSGTDFTLTINSVESEDIADYYCQQSNSWPFTFGGGTKLEIK
